According to paper PMC7913210 (Pharmaceutics, 2021):
Where two headings read alike, the source gives them in different places.

Assays:
rat olfactory microsomes = details: read-out: in vitro Km for the metabolism of lidocaine to MEGX, ref 35 (Deshpande et al.); cited from earlier work
[1] = Parent-metabolite PK model (non-linear mixed-effect modeling) after SC LHA administration; type: in vivo, Sprague-Dawley rats; details: rats; for Km: Sprague-Dawley, rat, plasma, sc
Protocol: In addition, a combined transit model with first-order absorption was evaluated to better describe absorption phase. In the transit model, the optimal number of transit compartments (NTR) and the mean transit time (MTT) were estimated. The transit model introduced three parameters—Ktr, NTR, and MTT. Two of these three parameters were estimated. The relationship of these parameters is shown in the following equation: MTT= (NTR+1)/Ktr The inter-individual variability (IIV) was assessed using an exponential variability model as following equation: Pi=Ptv ×exp (ETA) where Pi represents the value of the individual PK parameter, Ptv is a typical value for P, and ETA indicates an interindividual random effect with the mean of zero and variance of ω^2. Residual random variability (ε) was calculated using a proportional error model for the three types of observations. Optimal model selection was guided by changes in diagnostic values including twice the negative log like (−2LL), Akaike information Criterion (AIC), Baysian Information Criteria (BIC), visual inspection of various diagnostic plots (goodness of fit plot), and precision of parameter estimates. The visual predictive check (VPC) and boot strap analysis was conducted for non-parametric evaluation of the model. Graphical diagnostics including basic goodness-of-fit plot and other accessory plots were used for single run-based diagnostics during model development. For the final model, the robustness and predictive performance were evaluated using multiple run-based diagnostics such as bootstrapping. A bootstrap procedure was conducted with a total of 1000 bootstrap-resampled datasets from the original dataset. Bootstrap results of median and 95% confidence intervals (CIs, […]) were compared with final parameter estimates. The 95% confidence intervals of parameters obtained from this step were compared with final parameter estimates.

rat liver microsome = details: read-out: in vitro Km for the metabolism of lidocaine to MEGX, ref 35 (Deshpande et al.); cited from earlier work

In the case of `CCN(CC)CC(=O)Nc1c(C)cccc1C` [Lidocaine], the Km (rat olfactory microsomes) is listed as 157 µM, the Km ([1]; estimated Km value in vivo for the metabolism of lidocaine to MEGX, developed model) is listed as 137 µM and the Km ([1]; Michaelis-Menten elimination of lidocaine, model estimate, read-out: Km, Michaelis-Menten constant) is listed as 137 µM. The “Fm1, Fraction of the parent converted to first metabolite” value ([1]; lidocaine to MEGX, model estimate) was 0.65, the “Fr, Fraction of the dose absorbed by first-order absorption” value ([1]; model estimate (fixed effect)) was 0.373 and the Km (rat liver microsome) was 304 µM.
